Experimental data taken from patent publication US20090098142A1.
Results are given in words; binding and its absence hold for the method and conditions named. Some results given as binding are weak or reduced against the parent protein; the word gives no strength.

The chains behind the UniProt entries cited, without tags or fusion partners. Where a name states a change or a piece, a line headed by the entry shows the natural chain unless it says otherwise.
UniProt P35225: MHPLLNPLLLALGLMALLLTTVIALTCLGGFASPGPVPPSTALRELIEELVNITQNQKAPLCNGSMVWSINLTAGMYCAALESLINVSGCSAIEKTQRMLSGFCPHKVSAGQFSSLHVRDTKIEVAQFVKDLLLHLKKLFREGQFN

What was measured:
[1] = target: cynomolgus monkey IL-13 (NHP IL-13) (cynomolgus monkey); assay: direct NHP IL-13 binding ELISA
[2] = target: recombinant human R110Q IL-13 (human) (UniProt P35225); assay: sandwich ELISA for human IL-13 in BAL and serum of mice given R110Q IL-13, detector antibody
[3] = target: recombinant human R110Q IL-13 (human) (UniProt P35225); assay: ELISA for the complex: mAb13.2 capture, anti-human IgG (Fc specific) detection
[4] = target: recombinant human R110Q IL-13 (human) (UniProt P35225); assay: ELISA for the complex in BAL and serum

B1: humanized MJ 2-7 V4 (hMJ 2-7 VH V1 with hMJ 2-7 VL V4) (antibody, V domains shown)
VH: QVQLVQSGAEVKKPGASVKVSCKASGFNIKDTYIHWVRQAPGQRLEWMGRIDPANDNIKYDPKFQGRVTITRDTSASTAYMELSSLRSEDTAVYYCARSEENWYDFFDYWGQGTLVTVSS
VL: DVVMTQSPLSLPVTPGEPASISCRSSQSIVHSNGNTYLEWYLQKPGQSPQLLIYKVSNRFSGVPDRFSGSGSGTDFTLKISRVEAEDVGVYYCFQSSHVPLTFGQGTKLEIK
binding [1]: binds

B2: mouse monoclonal antibody C65 (antibody, V domains shown)
VH: QVQLKESGPGLVAPSQSLSITCTVSGFSLTGYGVNWVRQPPGKGLEWLGIIWGDGSTDYNSALKSRLIINKDNSKSQVFLKMNSLQTDDTARYFCARDKTFYYDGFYRGRMDYWGQGTSVTVSS
VL: DVQMIQSPSSLSASLGDIVTMTCQASQGTSINLNWFQQKPGKAPKLLIFGASNLEDGVPSRFSGSRYGTNFTLTISSLEDEDMATYFCLQHSYLPWTFGGGTKLEIK
binding [2]: binds

B3: humanized MJ 2-7 V2.11 IgG1 with a mutated CH2 domain (antibody, V domains shown)
VH: EVQLVESGGGLVQPGGSLRLSCAASGFNIKDTYIHWVRQAPGKGLEWIGRIDPANDNIKYDPKFQGRFTISADNAKNSAYLQMNSLRAEDTAVYYCARSEENWYDFFDYWGQGTLVTVSS
VL: DIQMTQSPSSLSASVGDRVTITCRSSQSIVHSNGNTYLEWYQQKPGKAPKLLIYKVSNRFSGVPSRFSGSGSGTDFTLTISSLQPEDFATYYCFQGSHIPYTFGGGTKVEIKR
binding [3]: binds
binding [4]: binds
